Laboratory results published in article PMC6915971.
Results are given in words; binding and its absence hold for the method and conditions named. In cells and extracts the contact can be indirect. Some binding calls cover weakened binding; strength is not graded here. Each block holds one substance with its values, some of them ahead of it.

Amino acid sequences for entries named in this document (tags omitted).
UniProt Q8N6T7: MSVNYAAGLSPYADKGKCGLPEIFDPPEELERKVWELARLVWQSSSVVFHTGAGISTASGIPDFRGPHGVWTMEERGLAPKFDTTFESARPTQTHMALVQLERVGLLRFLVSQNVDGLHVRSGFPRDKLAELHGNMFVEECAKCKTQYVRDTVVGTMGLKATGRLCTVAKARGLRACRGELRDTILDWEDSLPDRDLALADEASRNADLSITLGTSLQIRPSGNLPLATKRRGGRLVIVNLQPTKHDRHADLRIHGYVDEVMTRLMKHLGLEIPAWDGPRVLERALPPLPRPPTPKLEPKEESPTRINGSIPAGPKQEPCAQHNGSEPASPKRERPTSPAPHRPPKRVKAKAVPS
UniProt P15559: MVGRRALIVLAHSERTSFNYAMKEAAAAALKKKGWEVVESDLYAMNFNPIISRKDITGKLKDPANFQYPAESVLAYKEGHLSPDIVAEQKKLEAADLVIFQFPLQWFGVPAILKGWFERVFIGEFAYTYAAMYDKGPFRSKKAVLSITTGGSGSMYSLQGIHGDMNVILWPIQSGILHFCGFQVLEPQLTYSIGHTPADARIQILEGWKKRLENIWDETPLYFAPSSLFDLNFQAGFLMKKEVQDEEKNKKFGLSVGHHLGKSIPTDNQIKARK

Columns and labels:
[1] = target: Myc-DDK-tagged SIRT6 (ectopically expressed) (UniProt Q8N6T7); assay: co-IP; cells co-transfected with the constructs (PLC/PRF/5, Huh-7); lysates precipitated at 4 °C overnight with the indicated antibodies, then western blotting; for NQO1 and SIRT6 also after NADH (100 μM) or dicoumarol (400 μM) for 4 h
[2] = target: NAD(P)H: quinone oxidoreductase 1 (NQO1), endogenous (human (endogenous in PLC/PRF/5)) (UniProt P15559); assay: co-IP; endogenous proteins; HCC cell lysates precipitated in immunoprecipitation assay buffer at 4 °C overnight with anti-SIRT6, anti-NQO1 or anti-26S antibody, then western blotting
[3] = target: Sirtuin 6 (SIRT6), endogenous (human (endogenous in PLC/PRF/5 and Huh-7)) (UniProt Q8N6T7); assay: as above

binding [1]: binds
Substance: NQO1 (ectopically expressed from pCMV6-NQO1) (from UniProt P15559 1-274) (enzyme)

binding [2]: binds
Substance: Sirtuin 6 (SIRT6), endogenous (from UniProt Q8N6T7 1-355)

binding [3]: binds
Substance: NAD(P)H: quinone oxidoreductase 1 (NQO1), endogenous (from UniProt P15559 1-274) (enzyme)
